Here are results for 62 compounds from PubChem BioAssay AID493014 (National Center for Advancing Translational Sciences (NCATS), 2011).

Several values for one entry are separate records, joined by “and”; a condition that tells them apart may be missing. Equal entries are not always repeated. The list shows a part of the results. Shown are side measurements of this screen, not its main read-out; they come without a call. The list favours compounds with an active or inconclusive main result. The note in brackets gives the kind of curve behind each potency; many fits are weak.

A short description of this assay: qHTS Assay to Find Inhibitors of Chronic Active B-Cell Receptor Signaling. To be noted: ABC-DLBCL IkBa-CBG/CBR reporter, luminescence ratio (green luciferase fused to IkBa over red control in TMD8 lymphoma cells), 4 h. The essentials: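 Concentration-response series (up to 46 uM) were applied to TMD8 dual-reporter cells for 4 h at 37C with doxycycline. Green/red ratio, after filter-overlap correction, defined %Activity; red signal alone was normalised to basal cells and zero luminescence.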
On the technique in general: In qHTS, concentration-response curves come from the screen itself.

[1] abbreviates: measured here: CBR red luminescence, cell number.
[2] abbreviates: measured here: IkBa-CBG green luminescence.

As to `CCc1ccc(NC(=S)N2CCCC(C(F)(F)F)C2)cc1` (centres undefined), the AC50 (in general, the midpoint of the concentration-response curve, whichever way the signal moves) under setting [1] was 35.5 µM [rising, single point]. Same read-out and setting: for `CN1C2C=C3C(C#N)=C(N)C(C#N)(C#N)[C@@H](c4ccsc4)[C@@H]3C1CC2` (some centres undefined) the value was 29.1 µM [rising, single point]; for `O=C(OCC(=O)c1ccc[nH]1)c1ccccc1`, 11.2 µM [falling, partial curve]. Still for that read-out and setting: for `CCOC(=O)/C(=N\Nc1ccccc1[N+](=O)[O-])c1csc(Nc2ccccc2)n1` the value was 1.26 µM [rising, full curve, poor fit]; for `COCCSc1ccccc1C(=O)Nc1cc([N+](=O)[O-])ccc1OC`, 12.6 µM [rising, partial curve, poor fit]. On the same count and under the same terms, for `COc1ccc(-c2noc(-c3ccoc3C)n2)cc1` the value was 0.316 µM [rising, full curve, poor fit]; for `CC1=C(C#N)C(c2cn(-c3ccccc3)nc2-c2cccs2)C(C#N)=C(C)N1`, 31.6 µM [falling, single point]. As to `Cn1ncc2cc(NC(N)=S)ccc21`, the AC50 under setting [1] is 2.82 µM [falling, full curve]. On to `COc1ccc(CCC(C)Nc2cccc(F)c2)cc1` (centres undefined), for which the AC50 under setting [1] was 0.794 µM [rising, full curve, poor fit]. Still for that read-out and setting: for `CCOc1ccc(S(=O)(=O)N2CCC(C(=O)NCCN3CCOCC3)CC2)cc1C` the value was 5.62 µM [rising, single point]; for `Cc1ccc2c(c1)N=C(c1ccccc1)CC(C(Cl)Cl)=N2`, 7.94 µM [falling, partial curve]; for `CCOc1ccc2oc(C(=O)NCC3CCCO3)c(C)c2c1` (centres undefined), 31.6 µM [rising, single point]. Still for that read-out and setting: for `Cc1cc(NC(=O)c2coc(=O)c(Br)c2)ccc1C(C)C` the value was 12.6 µM [falling, partial curve]; for `COc1ccc([C@H]2Oc3cc(O)cc(O)c3C(=O)C2[C@@H]2C(=O)c3c(O)cc(O)cc3O[C@@H]2c2ccc(OC)cc2)cc1` (some centres undefined), 17.8 µM [falling, single point]. On to `CCOC(=O)c1ccccc1NC(=O)C1CCN(c2ncnc3sc(C)c(C)c23)CC1`, for which the AC50 under setting [1] was 25.9 µM [rising, single point]. Still for that read-out and setting: for `COCCNC(=S)Nc1cc(OC)c(NC(=O)c2ccco2)cc1OC` the value was 7.08 µM [rising, partial curve]; for `Cc1ccc2c(CC(=O)Nc3ccc(N4CCN(C)CC4)cc3C)coc2c1`, 35.5 µM [falling, single point]; for `CCOC(=O)C(Cc1ccccc1)C(=O)Nc1cccc2ccccc12` (centres undefined), 0.651 µM [rising, partial curve, poor fit]. With `O=C1NC(c2cccc(Br)c2)=N/C1=C\c1ccco1`, the AC50 under setting [2] is 23.1 µM [rising, partial curve, poor fit]. Take `COc1cccc2sc(NC(=O)c3ccc(Br)s3)nc12`: the AC50 under setting [1] was 0.0517 µM [falling, full curve]. Same read-out and setting: for `CC(C)C(=O)Nc1nc2cc3c(cc2s1)OCO3` the value was 16.4 µM [falling, single point]. Still for that read-out and setting: the same measure for `COCCn1c(N)c(N(Cc2ccccc2)C(=O)Cc2ccccc2F)c(=O)[nH]c1=O`: 15.8 µM [rising, single point]; for `CCN(CC)S(=O)(=O)c1ccc(OC)c(NC(=O)c2ccc3c(c2)OCO3)c1`: 12.6 µM [falling, partial curve, poor fit]; for `CCOC(=O)c1ccccc1NC(=O)COC(=O)C(CCSC)NC(=O)COc1ccccc1` (centres undefined): 11.6 µM [falling, partial curve]. The same measure, in the same setting: the same measure for `CNc1c([N+](=O)[O-])cnn1-c1ccc(F)cc1`: 35.5 µM [rising, partial curve, poor fit]; for `COC(=O)C1=NN(C(=O)c2ccccc2)C(O)(c2ccc([N+](=O)[O-])cc2)C1` (centres undefined): 11.2 µM [falling, partial curve, poor fit]; for `Cc1cccc(NC(=O)c2cc(-c3cc(C)cc(C)c3O)n[nH]2)c1`: 1.41 µM [falling, partial curve, poor fit]. For `CC(=O)CCc1ccc(OCCCCN2CCC(Cc3ccccc3)CC2)cc1`, the AC50 under setting [1] is 35.5 µM [falling, single point]. The same measure, in the same setting: for `CC(C)(C)OC(=O)NCCCCCc1nnc(SCC(N)=O)o1` the value was 3.55 µM [rising, single point].

Consider `OCC1(CCOc2ccccc2)CCN(C2Cc3ccccc3C2)CC1`, for which the AC50 under setting [1] is 3.16 µM [rising, full curve, poor fit]. The same measure, in the same setting: the same measure for `COc1ccccc1OCCNC(=O)c1ccc(C)c(S(=O)(=O)N2CCOCC2)c1`: 29.1 µM [falling, single point]; for `COc1c(Cl)ccc(Cl)c1C(=O)OCC(=O)O`: 35.5 µM [rising, single point]; for `CCCCN(CC)CCNC(=O)Cn1cc2c(n1)-c1c(oc(C(=O)N3CCCC3)c1C)CC2`: 7.08 µM [falling, full curve, poor fit]. Turning to `O=C(Nc1ccc(OC(F)F)cc1)c1cc(S(=O)(=O)N2CCOCC2)ccc1F`, the AC50 under setting [1] is 20 µM [falling, partial curve, poor fit]. Take `O=c1[nH]c2cc3c(cc2cc1CN(Cc1cccs1)Cc1nnnn1Cc1ccco1)OCCO3`: under setting [1], the AC50 was 17.8 µM [falling, partial curve, poor fit]. Still for that read-out and setting: the same measure for `Cc1c(Cl)cccc1N/C(=N/S(=O)(=O)c1cccs1)c1ccccc1`: 35.5 µM [falling, single point]. On the same count and under the same terms, the same measure for `COc1ccc(/C=N/NC(=O)C(Cc2c[nH]c3ccccc23)NC(=O)OCC(C)C)cc1[N+](=O)[O-]` (centres undefined): 15.8 µM [rising, partial curve, poor fit]. Still for that read-out and setting: the same measure for `CCOc1ccc(C(=O)Nc2cccc(C(=O)O)c2)cc1Cl`: 11.2 µM [falling, partial curve]; for `Cc1ccc(NC(=O)Nc2nnc(-c3ccccc3F)s2)cc1`: 10 µM [rising, partial curve]. Turning to `COc1ccc(C2=Nn3c(nnc3-c3ccccc3OC)SC2)cc1OC`, the AC50 is 3.26 µM [rising, full curve] and 1.41 µM [rising, full curve] under setting [1]; 3.66 µM [falling, full curve] and 1.26 µM [falling, full curve] under setting [2].

As for `C[C@@]12C(=O)N(Cc3ccccc3)CC(=O)N1[C@H]1c3cc(Cl)ccc3OC[C@@H]1[C@@H]2c1ccccc1`, the AC50 under setting [1] is 3.66 µM [falling, full curve].

Take `Cc1ccc(NC(=O)CN2C(=O)NC(Cc3c[nH]c4ccccc34)C2=O)cc1S(=O)(=O)N1CCCCC1` (centres undefined): the AC50 under setting [1] was 25.9 µM [falling, single point].

In the case of `O=c1c(Cc2ccccc2O)c(O)nc2n1CCCS2`, the AC50 under setting [1] was 8.2 µM [falling, partial curve, poor fit]. Same read-out and setting: for `Cc1cncn1CCc1nc2c3ccccc3nc(SCC(=O)Nc3cccc(Cl)c3)n2n1` the value was 29.1 µM [falling, single point] and 17.8 µM [falling, single point]; for `CCCOc1ccc(N2C(=O)CC(N(Cc3ccco3)C(=O)CCC(=O)O)C2=O)cc1` (centres undefined), 3.55 µM [falling, partial curve]. Same read-out and setting: the same measure for `Cc1nc(SCC(=O)Nc2ccccc2Cl)oc1C`: 2.82 µM [falling, partial curve, poor fit]; for `CCc1nnc(NC(=O)CSc2nnc(-c3ccoc3C)n2-c2ccc(C)cc2)s1`: 16.4 µM [falling, single point]; for `Cc1cccn2cc(CSc3nnc(Nc4ccc(C(C)C)cc4)s3)nc12`: 0.651 µM [rising, full curve]. Same read-out and setting: for `COc1ccccc1C(=O)N(Cc1ccco1)C1CCS(=O)(=O)C1` (centres undefined) the value was 0.231 µM [falling, full curve, poor fit].

As to `CCN1C(=O)/C(=C\N2CCN(c3cccc(Cl)c3)CC2)SC1=S`, the AC50 under setting [1] is 35.5 µM [rising, single point].

On to `CCCOC(=O)Nc1sc2c(c1C(N)=O)CCCC2`, for which, under setting [1], the AC50 is 17.8 µM [rising, partial curve, poor fit].

With `O=C(O)/C=C/C(=O)Nc1ccc(-n2nccc2C(F)(F)F)cc1`, under setting [1], the AC50 was 3.98 µM [rising, single point]. As to `COc1ccc(-c2cn(-c3ccc(C)cc3C)c(=S)[nH]2)cc1OC`, the AC50 under setting [1] is 1.26 µM [falling, full curve, poor fit]. Still for that read-out and setting: for `CCC(OC(=O)c1nsc(Cl)c1Cl)C(=O)NC(C)(C)CC` (centres undefined) the value was 0.316 µM [falling, full curve, poor fit].

In the case of `COc1ccc(OC)c(NC(=O)c2c(NCc3cccs3)sc3c2CCCC3)c1`, the AC50 under setting [1] is 3.98 µM [rising, single point]. On to `C/C(CC(=O)Nc1cc(Cl)ccc1Cl)=N\NC(N)=S`, for which the AC50 by setting is: under setting [1], 35.5 µM [rising, single point]; under setting [2], 35.5 µM [falling, single point].

For the compound `O=C(NCc1ccc(F)cc1)c1ccccc1OCc1ccccc1`, under setting [1], the AC50 is 0.58 µM [falling, full curve]. The same measure, in the same setting: the same measure for `COc1ccccc1OCCOc1ccc(/C=C2\C(=N)N3N=C(C)SC3=NC2=O)cc1`: 4.47 µM [rising, partial curve, poor fit]. The same measure, in the same setting: the same measure for `Cc1c(Cl)cccc1NC(=O)CNC(=O)c1ccccc1F`: 6.51 µM [rising, single point].

For `O=C(CCC(=O)N(CC(=O)NC1CCCCC1)c1ccccc1F)Nc1nccs1`, the AC50 under setting [1] is 3.55 µM [falling, full curve, poor fit]. For the compound `COc1ccc(N2CC(C(=O)N3CCC(c4nc5ccccc5[nH]4)CC3)CC2=O)cc1` (centres undefined), the AC50 under setting [2] is 3.66 µM [falling, partial curve, poor fit].

`CCOc1cccc(/C=C/c2cc(C(=O)O)c3ccccc3n2)c1OC`: the AC50 under setting [1] is 14.1 µM [falling, single point].
